Data from article PMC5325336.

Biological target: T1, myc-tagged porcine BCL-G (porcine) (UniProt F1SQ67)
T1 sequence: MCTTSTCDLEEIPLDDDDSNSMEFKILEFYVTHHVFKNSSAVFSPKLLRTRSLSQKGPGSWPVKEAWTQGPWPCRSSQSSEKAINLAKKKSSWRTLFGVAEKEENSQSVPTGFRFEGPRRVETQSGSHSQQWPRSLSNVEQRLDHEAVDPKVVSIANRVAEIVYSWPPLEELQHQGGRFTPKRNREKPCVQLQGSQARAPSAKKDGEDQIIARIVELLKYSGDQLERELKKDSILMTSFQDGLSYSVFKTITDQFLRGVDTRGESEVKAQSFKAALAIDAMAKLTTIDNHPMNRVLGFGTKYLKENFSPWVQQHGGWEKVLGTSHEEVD
Assay: co-IP; Pierce Mammalian c-Myc Tag IP/Co-IP Kit; SUVEC cells co-transfected, lysed about 36 hours later in M-PER; lysate incubated overnight at 4°C with anti-c-Myc agarose; washed with TBS plus 0.05% Tween-20; blot with anti-HA tag or anti-myc tag antibody

binding: binds
Substance: HA-tagged porcine JAB1

No constants are given. Whether binding was seen depends on the method and setting. Binding seen in cells or lysates may run through a third protein. Binding calls can cover weak binding; strength is not graded here. Where a sequence is shown, tags or fusion partners need not be part of it.
